{
  "source": "patent US10525187B2",
  "about": "“Apparatus for removing protein-bound toxins from blood plasma” (Fresenius Medical Care Deutschland GmbH, priority 2012, dated 2020)",
  "tested_on": "protein-bound uremic toxins",
  "experiment": "Suitable frequencies in the HF field for separation of protein-bound uremic toxins (Embodiment 3, Table 1)",
  "type": "in vitro ADME",
  "note": "“And” between values parts separate entries of the source, which are not always exact repeats. Equal values may be shown once. Where a name gives a salt, the structure may show the parent alone.",
  "data": [
    {"smiles": "O=S(=O)(O)Oc1c[nH]c2ccccc12", "note": "[IDS, indoxyl sulfate]", "values": [
      {"measurement": "Suitable frequencies in the HF field (ranges at which the maximum separation effect was determined)", "setting": "E field 80-120 MHz", "result": "110 MHz and 110-111 MHz and 111 MHz"},
      {"measurement": "Suitable frequencies in the HF field (ranges at which the maximum separation effect was determined)", "setting": "E field 120-170 MHz", "result": "140-141 MHz"}
    ]},
    {"smiles": "Cc1ccc(OS(=O)(=O)O)cc1", "note": "[pCRS]", "values": [
      {"measurement": "Suitable frequencies in the HF field (ranges at which the maximum separation effect was determined)", "setting": "E field 80-120 MHz", "result": "110 MHz and 110-111 MHz and 111 MHz"},
      {"measurement": "Suitable frequencies in the HF field (ranges at which the maximum separation effect was determined)", "setting": "E field 120-170 MHz", "result": "151-152 MHz and 140-141 MHz"}
    ]}
  ]
}
